We go through 6 sequences from paper PMC4786428, “Recombinational branch migration by the RadA/Sms paralog of RecA in Escherichia coli”.

For this series, the target named is T1, RadA (Sms) wild type (Escherichia coli) (UniProt P24554).
T1 sequence (looked up): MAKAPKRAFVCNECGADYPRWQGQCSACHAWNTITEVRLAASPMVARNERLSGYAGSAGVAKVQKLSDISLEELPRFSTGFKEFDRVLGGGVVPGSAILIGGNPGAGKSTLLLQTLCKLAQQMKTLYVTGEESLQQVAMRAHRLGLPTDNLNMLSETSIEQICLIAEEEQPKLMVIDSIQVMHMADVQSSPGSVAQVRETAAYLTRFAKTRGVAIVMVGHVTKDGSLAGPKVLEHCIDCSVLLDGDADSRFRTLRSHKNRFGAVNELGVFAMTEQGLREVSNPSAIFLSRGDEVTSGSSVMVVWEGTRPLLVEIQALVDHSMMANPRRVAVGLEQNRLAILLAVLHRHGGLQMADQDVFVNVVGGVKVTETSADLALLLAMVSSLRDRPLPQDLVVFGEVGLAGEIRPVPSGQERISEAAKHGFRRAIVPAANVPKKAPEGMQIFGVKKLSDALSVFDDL
Description: EMSA. The settings on record: 50 mM Tris-HCl pH 7.5, 10 mM MgCl2, 0.1 mM EDTA, 75 mM NaCl, 5 mM DTT, 100 ug/ml BSA, 1 mM nucleotide, 100 fmol DNA, 37 C for 20-30 min, recombinant protein, residues 1-460. In general terms: Mobility shift assays separate free from complexed probe on a gel.

Where [1] appears, read: very weakly bound, data not shown.

A negative result means that nothing was seen under these conditions. Tags and fusion partners may be left off the protein sequences shown. For at least one entry, the source does not settle the construct or the ends of the probe. The comparison behind a weaker result is the experiment's own reference, which may not be listed here. At least one verdict rests on a figure or table, not on a statement of the authors.

As to “CCGCTACCAGTGATCACCAATGGATTGCTAGGACATCTTTGCCCACCTGCAGGTTCACCC / TGGGTGAACCTGCAGGTGGGCAAAGATGTCCTAGCAATCCATTGTCTATGACGTCAAGCT / AGCTTGACGTCATA / GATCACTGGTAGCGG [Fork 4]”, under setting [1], the binding result is on record as “binds more weakly”.

For the sequence “CCGCTACCAGTGATCACCAATGGATTGCTAGGACATCTTTGCCCACCTGCAGGTTCACCC / TGGGTGAACCTGCAGGTGGGCAAAGATGTCCTAGCAATCCATTGTCTATGACGTCAAGCT / AGCTTGACGTCATA [Fork 2]”, the binding result under setting [1] is recorded as “binds more weakly”.

“CCGCTACCAGTGATCACCAATGGATTGCTAGGACATCTTTGCCCACCTGCAGGTTCACCC / TGGGTGAACCTGCAGGTGGGCAAAGATGTCCTAGCAATCCATTGTCTATGACGTCAAGCT / GATCACTGGTAGCGG [Fork 3]”: the binding result under setting [1] was “binds more weakly”. For the sequence “CCGCTACCAGTGATCACCAATGGATTGCTAGGACATCTTTGCCCACCTGCAGGTTCACCC / TGGGTGAACCTGCAGGTGGGCAAAGATGTCCTAGCAATCCATTGTCTATGACGTCAAGCT / TGCCGATATTGACAAGACGGCAAAGATGTCCTAGCAATCCATTGGTGATCACTGGTAGCGG [3-stranded fork]”, the binding result under setting [1] is on record as “binds more weakly”. For the sequence “CCGCTACCAGTGATCACCAATGGATTGCTAGGACATCTTTGCCCACCTGCAGGTTCACCC / TGGGTGAACCTGCAGGTGGGCAAAGATGTCCTAGCAATCCATTGTCTATGACGTCAAGCT [Fork 1]”, the binding result under setting [1] was “binds more weakly”. For “TTTTTTTTTTTTTTTTTTTTTTTTTTTTTT [poly(dT)30]”, the binding result runs as follows: (1 mM AMP-PNP, label: 5' 32P (unlabeled as competitor), single-stranded DNA) “no binding”; (1 mM ATP, label: 5' 32P (unlabeled as competitor), single-stranded DNA) “no binding”; (1 mM ATPgS, label: 5' 32P (unlabeled as competitor), single-stranded DNA) “no binding”; (1 mM dATP, label: 5' 32P (unlabeled as competitor), single-stranded DNA) “no binding”; (no nucleotide, label: 5' 32P (unlabeled as competitor), single-stranded DNA) “no binding”.
